Test results from the supplement of paper PMC4604168 (melanoma cell lines).
The other results are listed elsewhere or left out. Repeats are few or missing, and single values can be far off.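 The apoptosis fraction was the count of cleaved-PARP antibody-stained nuclei relative to all DNA-stained nuclei, imaged in 1,536-well plates. Screening doses were set so most cells survived, and baseline and induced cleaved-PARP levels vary greatly across cell lines.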

Tests used:
Test in all cases: cleaved PARP positive nuclei fraction relative to DMSO control; melanoma cells; higher = more apoptosis
Conditions in all cases: library dose: low library concentration; 72 h
501Mel = test system: 501Mel
A101D = test system: A101D
A2058 = test system: A2058
A375 = test system: A375
C32 = test system: C32
CBRC013 = test system: CBRC013 (line from a melanoma biopsy)
CBRC014 = test system: CBRC014 (line from a melanoma biopsy)
CBRC016 = test system: CBRC016 (line from a melanoma biopsy)
CBRC017 = test system: CBRC017 (line from a melanoma biopsy)

Structure (SMILES) | cleaved PARP positive nuclei fraction (501Mel) [%] | cleaved PARP positive nuclei fraction (A101D) [%] | cleaved PARP positive nuclei fraction (A2058) [%] | cleaved PARP positive nuclei fraction (A375) [%] | cleaved PARP positive nuclei fraction (C32) [%] | cleaved PARP positive nuclei fraction (CBRC013) [%] | cleaved PARP positive nuclei fraction (CBRC014) [%] | cleaved PARP positive nuclei fraction (CBRC016) [%] | cleaved PARP positive nuclei fraction (CBRC017) [%]
COc1ccc(-c2ccc3c(N4CCOCC4)nc(N4C[C@@H](C)O[C@@H](C)C4)nc3n2)cc1CO + O=C(Oc1ccc([N+](=O)[O-])cc1)N1CCC(C(O)(c2ccc3c(c2)OCO3)c2ccc3c(c2)OCO3)CC1 [JZL184] (first compound 0.02 µM, partner dose 1 µM) | 62.6 | 51.4 | 125 | 169 | 149 | 1510 | 95.4 | 143 | 82.6
Cc1cc(SCc2sc(-c3ccc(C(F)(F)F)c(F)c3)nc2C)ccc1OCC(=O)O + COc1cc(N2CCC(N3CCN(C)CC3)CC2)ccc1Nc1ncc(Cl)c(Nc2ccccc2S(=O)(=O)C(C)C)n1 [NVP-TAE684] (first compound 2 µM, partner dose 0.08 µM) | 122 | 62 | 153 | 34 | 112 | 546 | 101 | 217 | 97
COc1cc(Nc2ncc(F)c(Nc3ccc4c(n3)NC(=O)C(C)(C)O4)n2)cc(OC)c1OC [Tamatinib] + Cc1cc(SCc2sc(-c3ccc(C(F)(F)F)c(F)c3)nc2C)ccc1OCC(=O)O [GW0742] (first compound 0.4 µM, partner dose 2 µM) | 20.9 | 59 | 81.2 | 178 | 125 | 53.6 | 85.6 | 41.3 | 77.6
CCN(CC)CCCCNc1ncc2cc(-c3cc(OC)cc(OC)c3)c(NC(=O)NC(C)(C)C)nc2n1 + O=C(Oc1ccc([N+](=O)[O-])cc1)N1CCC(C(O)(c2ccc3c(c2)OCO3)c2ccc3c(c2)OCO3)CC1 [JZL184] (first compound 0.1 µM, partner dose 1 µM) | 95.3 | 37.3 | 65.8 | 184 | 140 | 75.3 | 78.1 | 74.9 | 69.7
C=CCn1c(=O)c2cnc(Nc3ccc(N4CCN(C)CC4)cc3)nc2n1-c1cccc(C(C)(C)O)n1 + Cc1cc(SCc2sc(-c3ccc(C(F)(F)F)c(F)c3)nc2C)ccc1OCC(=O)O [GW0742] (first compound 0.02 µM, partner dose 2 µM) | 69.2 | 132 | 28.5 | 348 | 133 | 289 | 105 | 19.1 | 138
Cc1cc(SCc2sc(-c3ccc(C(F)(F)F)c(F)c3)nc2C)ccc1OCC(=O)O + O=c1cc(-c2cccc3c2Sc2ccccc2S3)oc(N2CCOCC2)c1 [KU55933] (first compound 2 µM, partner dose 1 µM) | 82.1 | 125 | 45.5 | 129 | 94.9 | 134 | 107 | 87 | 151
C[As](C)SC[C@H](NC(=O)CC[C@H](N)C(=O)O)C(=O)NCC(=O)O [Darinaparsin] + O=C1NC(=O)/C(=C/c2ccc(-c3ccc(F)cc3O)o2)S1 [AS252424] (first compound 0.4 µM, partner dose 1 µM) | 199 | 299 | 99.5 | 54.1 | 208 | 82.7 | 86.6 | 76.7 | 110
CCc1ccc(CCOc2ccc(CC3SC(=O)NC3=O)cc2)nc1 (stereo unspecified) [pioglitazone] + Cc1cc(SCc2sc(-c3ccc(C(F)(F)F)c(F)c3)nc2C)ccc1OCC(=O)O [GW0742] (first compound 2 µM, partner dose 2 µM) | 197 | 325 | 233 | 131 | 189 | 291 | 91.2 | 68 | 84.5
NC(=O)Nc1cc(-c2cccc(F)c2)sc1C(=O)N[C@H]1CCCNC1 + C/C(O)=C(\C#N)C(=O)Nc1cc(Br)ccc1Br [LFM-A13] (first compound 0.02 µM, partner dose 2 µM) | 122 | 180 | 67.4 | 421 | 126 | 262 | 101 | 72.9 | 84.9
CCN(CC)CCCCNc1ncc2cc(-c3cc(OC)cc(OC)c3)c(NC(=O)NC(C)(C)C)nc2n1 + C/C(O)=C(\C#N)C(=O)Nc1cc(Br)ccc1Br [LFM-A13] (first compound 0.1 µM, partner dose 2 µM) | 153 | 161 | 61 | 64.6 | 119 | 333 | 89.2 | 155 | 73.1
C#Cc1cccc(Nc2ncnc3cc(OCCOC)c(OCCOC)cc23)c1 [erlotinib] + O=C(Oc1ccc([N+](=O)[O-])cc1)N1CCC(C(O)(c2ccc3c(c2)OCO3)c2ccc3c(c2)OCO3)CC1 [JZL184] (first compound 0.8 µM, partner dose 1 µM) | 50.6 | 214 | 214 | 94.9 | 71.4 | 66.1 | 107 | 89.3 | 89.3
Cn1c(Nc2ccc(C(F)(F)F)cc2)nc2cc(Oc3ccnc(-c4ncc(C(F)(F)F)[nH]4)c3)ccc21 + C/C(O)=C(\C#N)C(=O)Nc1cc(Br)ccc1Br [LFM-A13] (first compound 0.08 µM, partner dose 2 µM) | 143 | 90.6 | 409 | 696 | 47.2 | 559 | 95 | 48.7 | 97.9
C[As](C)SC[C@H](NC(=O)CC[C@H](N)C(=O)O)C(=O)NCC(=O)O [Darinaparsin] + O=C(Oc1ccc([N+](=O)[O-])cc1)N1CCC(C(O)(c2ccc3c(c2)OCO3)c2ccc3c(c2)OCO3)CC1 [JZL184] (first compound 0.4 µM, partner dose 1 µM) | 47.8 | 30.6 | 46.7 | 51.9 | 168 | 172 | 98.9 | 27.3 | 84.5
COc1cc2c(Oc3ccc4[nH]c(C)cc4c3F)ncnc2cc1OCCCN1CCCC1 [cediranib] + C/C(O)=C(\C#N)C(=O)Nc1cc(Br)ccc1Br [LFM-A13] (first compound 0.4 µM, partner dose 2 µM) | 92.1 | 134 | 32.6 | 119 | 70.6 | 114 | 155 | 49.6 | 127
O=C(O)C(=O)Nc1sc2c(c1C(=O)O)CCNC2 + O=C(Oc1ccc([N+](=O)[O-])cc1)N1CCC(C(O)(c2ccc3c(c2)OCO3)c2ccc3c(c2)OCO3)CC1 [JZL184] (first compound 1.66667 µM, partner dose 1 µM) | 76.3 | 83.8 | 74.3 | 71.5 | 80.4 | 121 | 71 | 36.2 | 81.5
NC(=O)Nc1cc(-c2cccc(F)c2)sc1C(=O)N[C@H]1CCCNC1 + Cc1cc(SCc2sc(-c3ccc(C(F)(F)F)c(F)c3)nc2C)ccc1OCC(=O)O [GW0742] (first compound 0.02 µM, partner dose 2 µM) | 99.7 | 67.6 | 72.1 | 582 | 148 | 56.7 | 93.4 | 72 | 87.2
Oc1cc(-c2nc(-c3ccccc3)[nH]c2-c2ccncc2)ccc1Cl + C/C(O)=C(\C#N)C(=O)Nc1cc(Br)ccc1Br [LFM-A13] (first compound 0.2 µM, partner dose 2 µM) | 83.8 | 62.9 | 131 | 308 | 92.4 | 77.2 | 88.1 | 81.5 | 81.9
O=C(Nc1cccc(Cl)c1)Nc1ncc(CCNc2ncnc3ccsc23)s1 + Cc1cc(SCc2sc(-c3ccc(C(F)(F)F)c(F)c3)nc2C)ccc1OCC(=O)O [GW0742] (first compound 0.0008 µM, partner dose 2 µM) | 150 | 209 | 41.7 | 99 | 288 | 83 | 85 | 90 | 168
NCC(=O)Nc1ccc(-n2nc(C(F)(F)F)cc2-c2ccc3c(ccc4ccccc43)c2)cc1 + Cc1cc(SCc2sc(-c3ccc(C(F)(F)F)c(F)c3)nc2C)ccc1OCC(=O)O [GW0742] (first compound 1 µM, partner dose 2 µM) | 366 | 137 | 93.6 | 4600 | 44.2 | 159 | 98.1 | 131 | 69.7
C/C(O)=C(\C#N)C(=O)Nc1cc(Br)ccc1Br + CC(C)CCN1c2nc(Nc3cc(F)c(O)c(F)c3)ncc2N(C)C(=O)C1C [BID1870] (first compound 2 µM, partner dose 0.2 µM) | 42.8 | 182 | 71.6 | 91.2 | 43.4 | 239 | 105 | 168 | 297
Cc1nc(Nc2ncc(C(=O)Nc3c(C)cccc3Cl)s2)cc(N2CCN(CCO)CC2)n1 [dasatanib] + C/C(O)=C(\C#N)C(=O)Nc1cc(Br)ccc1Br [LFM-A13] (first compound 0.004 µM, partner dose 2 µM) | 91.1 | 71.5 | 219 | 243 | 170 | 75.5 | 107 | 59.5 | 84.1
CC(C)(C)c1cnc(CSc2cnc(NC(=O)C3CCNCC3)s2)o1 + O=C(Oc1ccc([N+](=O)[O-])cc1)N1CCC(C(O)(c2ccc3c(c2)OCO3)c2ccc3c(c2)OCO3)CC1 [JZL184] (first compound 0.01 µM, partner dose 1 µM) | 77.5 | 88 | 56.2 | 90.7 | 111 | 204 | 98.7 | 102 | 110
Nc1cccc2c1CN(C1CCC(=O)NC1=O)C2=O (stereo unspecified) [lenalidomide] + Cc1cc(SCc2sc(-c3ccc(C(F)(F)F)c(F)c3)nc2C)ccc1OCC(=O)O [GW0742] (first compound 1 µM, partner dose 2 µM) | 47 | 35.2 | 249 | 76 | 138 | 43.9 | 94.7 | 51.5 | 68.6
NCC(=O)Nc1ccc(-n2nc(C(F)(F)F)cc2-c2ccc3c(ccc4ccccc43)c2)cc1 + C/C(O)=C(\C#N)C(=O)Nc1cc(Br)ccc1Br [LFM-A13] (first compound 1 µM, partner dose 2 µM) | 1740 | 35.5 | 62 | 4050 | 128 | 200 | 107 | 60.1 | 93.3

For convenience, some entries already given.
Structure (SMILES) | cleaved PARP positive nuclei fraction (501Mel) [%] | cleaved PARP positive nuclei fraction (A101D) [%] | cleaved PARP positive nuclei fraction (A2058) [%] | cleaved PARP positive nuclei fraction (A375) [%] | cleaved PARP positive nuclei fraction (C32) [%] | cleaved PARP positive nuclei fraction (CBRC013) [%] | cleaved PARP positive nuclei fraction (CBRC014) [%] | cleaved PARP positive nuclei fraction (CBRC016) [%] | cleaved PARP positive nuclei fraction (CBRC017) [%]
Cc1cc(SCc2sc(-c3ccc(C(F)(F)F)c(F)c3)nc2C)ccc1OCC(=O)O + COc1cc(N2CCC(N3CCN(C)CC3)CC2)ccc1Nc1ncc(Cl)c(Nc2ccccc2S(=O)(=O)C(C)C)n1 [NVP-TAE684] (first compound 2 µM, partner dose 0.08 µM) | 122 | 62 | 153 | 34 | 112 | 546 | 101 | 217 | 97
COc1cc(Nc2ncc(F)c(Nc3ccc4c(n3)NC(=O)C(C)(C)O4)n2)cc(OC)c1OC [Tamatinib] + Cc1cc(SCc2sc(-c3ccc(C(F)(F)F)c(F)c3)nc2C)ccc1OCC(=O)O [GW0742] (first compound 0.4 µM, partner dose 2 µM) | 20.9 | 59 | 81.2 | 178 | 125 | 53.6 | 85.6 | 41.3 | 77.6
